Laboratory results reported in doi:10.1101/2025.01.13.632873.
No constants are given. Whether binding was seen depends on the method and setting. Binding seen in cells or lysates may run through a third protein. Some results given as binding are weak or reduced against the parent protein; the word gives no strength.

Sequences of proteins named here, by UniProt entry; tags and fusion partners are left off. Residues count along the entry.
UniProt Q8K2Q9: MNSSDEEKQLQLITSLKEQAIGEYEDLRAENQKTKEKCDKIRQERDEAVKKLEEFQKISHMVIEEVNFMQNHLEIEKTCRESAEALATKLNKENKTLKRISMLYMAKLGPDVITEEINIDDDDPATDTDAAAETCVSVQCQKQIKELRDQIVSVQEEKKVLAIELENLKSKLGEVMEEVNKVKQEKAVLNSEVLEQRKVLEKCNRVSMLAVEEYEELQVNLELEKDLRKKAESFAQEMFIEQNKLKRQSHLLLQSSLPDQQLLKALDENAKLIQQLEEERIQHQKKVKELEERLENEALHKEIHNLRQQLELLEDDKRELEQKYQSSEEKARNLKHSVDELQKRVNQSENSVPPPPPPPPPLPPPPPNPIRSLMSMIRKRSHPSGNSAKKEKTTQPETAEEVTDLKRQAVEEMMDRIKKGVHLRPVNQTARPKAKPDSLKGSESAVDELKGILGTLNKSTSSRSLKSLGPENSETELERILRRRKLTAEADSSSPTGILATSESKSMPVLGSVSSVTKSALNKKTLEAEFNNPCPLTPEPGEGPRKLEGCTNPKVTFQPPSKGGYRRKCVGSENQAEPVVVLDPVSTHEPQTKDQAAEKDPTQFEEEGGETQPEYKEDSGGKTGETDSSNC
UniProt P11627, residues 20-1260: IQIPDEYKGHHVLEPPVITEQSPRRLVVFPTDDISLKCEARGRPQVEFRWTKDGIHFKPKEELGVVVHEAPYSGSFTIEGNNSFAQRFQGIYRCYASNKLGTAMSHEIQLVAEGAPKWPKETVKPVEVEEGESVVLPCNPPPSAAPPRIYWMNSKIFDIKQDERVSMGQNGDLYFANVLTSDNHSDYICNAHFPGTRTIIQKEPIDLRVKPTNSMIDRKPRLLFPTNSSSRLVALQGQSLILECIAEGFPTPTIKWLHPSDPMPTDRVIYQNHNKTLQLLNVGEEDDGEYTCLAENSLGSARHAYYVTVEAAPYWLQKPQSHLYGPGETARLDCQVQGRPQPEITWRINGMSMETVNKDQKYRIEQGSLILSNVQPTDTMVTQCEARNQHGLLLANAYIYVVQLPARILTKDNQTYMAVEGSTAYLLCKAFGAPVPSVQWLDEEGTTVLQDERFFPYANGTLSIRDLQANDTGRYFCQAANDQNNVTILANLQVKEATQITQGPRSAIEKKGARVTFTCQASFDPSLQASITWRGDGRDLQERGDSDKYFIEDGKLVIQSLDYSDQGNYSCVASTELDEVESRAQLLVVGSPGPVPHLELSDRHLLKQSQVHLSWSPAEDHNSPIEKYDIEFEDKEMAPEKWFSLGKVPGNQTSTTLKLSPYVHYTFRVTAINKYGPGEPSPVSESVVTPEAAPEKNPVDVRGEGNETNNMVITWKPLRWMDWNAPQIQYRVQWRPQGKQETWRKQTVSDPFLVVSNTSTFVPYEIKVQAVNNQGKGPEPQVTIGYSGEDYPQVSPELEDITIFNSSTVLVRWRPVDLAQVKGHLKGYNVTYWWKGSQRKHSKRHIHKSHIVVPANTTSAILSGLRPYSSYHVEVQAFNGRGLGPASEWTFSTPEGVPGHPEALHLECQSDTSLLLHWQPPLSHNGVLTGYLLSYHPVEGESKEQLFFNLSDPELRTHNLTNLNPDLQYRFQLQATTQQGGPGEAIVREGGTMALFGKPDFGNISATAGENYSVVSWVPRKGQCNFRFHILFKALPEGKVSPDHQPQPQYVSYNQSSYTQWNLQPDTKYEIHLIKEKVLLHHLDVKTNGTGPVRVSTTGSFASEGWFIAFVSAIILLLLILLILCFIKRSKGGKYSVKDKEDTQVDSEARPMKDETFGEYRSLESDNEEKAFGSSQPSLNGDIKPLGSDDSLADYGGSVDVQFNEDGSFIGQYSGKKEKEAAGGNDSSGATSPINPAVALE
UniProt Q60598: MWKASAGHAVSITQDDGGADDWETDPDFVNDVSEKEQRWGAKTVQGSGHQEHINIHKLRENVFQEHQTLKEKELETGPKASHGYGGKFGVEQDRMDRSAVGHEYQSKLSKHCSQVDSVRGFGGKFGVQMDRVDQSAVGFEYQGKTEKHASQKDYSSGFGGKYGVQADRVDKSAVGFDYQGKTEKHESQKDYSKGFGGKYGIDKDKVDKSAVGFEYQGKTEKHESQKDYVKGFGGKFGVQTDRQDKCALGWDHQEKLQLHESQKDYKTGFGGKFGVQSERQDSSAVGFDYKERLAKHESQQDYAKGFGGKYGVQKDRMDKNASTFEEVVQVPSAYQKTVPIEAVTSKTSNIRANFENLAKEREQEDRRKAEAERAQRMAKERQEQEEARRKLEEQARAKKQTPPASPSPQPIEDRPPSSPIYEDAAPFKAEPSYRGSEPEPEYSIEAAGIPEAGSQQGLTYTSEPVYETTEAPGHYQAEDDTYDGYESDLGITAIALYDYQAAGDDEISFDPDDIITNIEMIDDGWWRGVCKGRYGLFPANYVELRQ

Target: shootin1b (mouse (endogenous in bone marrow-derived dendritic cells)) (UniProt Q8K2Q9)
Assay: co-IP

| binding | Substance |
| --- | --- |
| binds | cell adhesion molecule L1 (from UniProt P11627 20-1260) |
| binds | cortactin (from UniProt Q60598 1-546) |
